Laboratory results from PMC9144539.
These are yes or no findings as the source states them, for the method shown. For some assays here: Binding seen in cells or lysates may run through a third protein. Some entries that bind do so weakly or less than the wild type. Sequences can lack the tags named with a protein.

T1: GAL4 binding domain fusion of AFP2 (ABI5-binding protein 2) (Arabidopsis) (UniProt Q9LMX5)
T1 sequence: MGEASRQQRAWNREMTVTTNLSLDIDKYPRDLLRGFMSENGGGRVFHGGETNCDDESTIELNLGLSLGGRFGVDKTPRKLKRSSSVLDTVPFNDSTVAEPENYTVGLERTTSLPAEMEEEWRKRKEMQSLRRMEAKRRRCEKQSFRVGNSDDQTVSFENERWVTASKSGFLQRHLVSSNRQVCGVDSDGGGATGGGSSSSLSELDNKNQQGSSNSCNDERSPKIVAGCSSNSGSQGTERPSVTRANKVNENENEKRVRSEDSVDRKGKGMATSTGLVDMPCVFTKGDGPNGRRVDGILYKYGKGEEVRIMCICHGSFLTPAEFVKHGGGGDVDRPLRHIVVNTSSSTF

T2: GAL4 binding domain fusion of ABI5 (Arabidopsis) (UniProt Q9SJN0)
T2 sequence: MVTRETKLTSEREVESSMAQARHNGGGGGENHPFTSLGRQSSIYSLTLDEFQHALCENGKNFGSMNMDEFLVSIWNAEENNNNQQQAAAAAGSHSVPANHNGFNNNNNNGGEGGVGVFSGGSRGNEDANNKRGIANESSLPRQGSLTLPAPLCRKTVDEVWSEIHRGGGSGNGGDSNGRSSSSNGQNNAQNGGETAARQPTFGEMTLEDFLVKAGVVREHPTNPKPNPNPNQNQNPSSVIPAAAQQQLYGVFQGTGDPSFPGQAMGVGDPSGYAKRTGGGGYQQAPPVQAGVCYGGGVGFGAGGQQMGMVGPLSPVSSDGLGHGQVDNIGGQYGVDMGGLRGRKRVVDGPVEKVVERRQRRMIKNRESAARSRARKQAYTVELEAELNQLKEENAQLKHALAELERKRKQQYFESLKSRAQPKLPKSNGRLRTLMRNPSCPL

T3: GAL4 binding domain fusion of AFP1 (ABI5-binding protein 1) (Arabidopsis) (UniProt Q9LQ98)
T3 sequence: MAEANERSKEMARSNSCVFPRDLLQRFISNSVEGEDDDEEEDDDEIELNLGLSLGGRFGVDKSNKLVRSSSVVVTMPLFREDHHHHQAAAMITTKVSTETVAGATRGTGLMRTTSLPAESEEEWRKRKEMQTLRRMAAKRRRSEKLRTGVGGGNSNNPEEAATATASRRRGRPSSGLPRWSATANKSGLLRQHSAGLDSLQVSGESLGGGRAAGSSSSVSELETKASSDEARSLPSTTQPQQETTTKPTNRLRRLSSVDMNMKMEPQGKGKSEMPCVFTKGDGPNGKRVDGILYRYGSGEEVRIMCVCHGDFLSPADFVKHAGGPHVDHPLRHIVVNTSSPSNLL

T4: split YFP fusion of AFP2 (Arabidopsis) (UniProt Q9LMX5)
T4 sequence: T1 sequence

T5: split YFP fusion of AFP1 (Arabidopsis) (UniProt Q9LQ98)
T5 sequence: T3 sequence

B1: GAL4 activation domain fusion of the GRAS domain of RGA2 (codons 115-533) (domain or fragment, UniProt Q9LQT8 115-533)
chain: AIDSASSSNQGGGGDTYTTNKRLKCSNGVVETTTATAESTRHVVLVDSQENGVRLVHALLACAEAVQKENLTVAEALVKQIGFLAVSQIGAMRKVATYFAEALARRIYRLSPSQSPIDHSLSDTLQMHFYETCPYLKFAHFTANQAILEAFQGKKRVHVIDFSMSQGLQWPALMQALALRPGGPPVFRLTGIGPPAPDNFDYLHEVGCKLAHLAEAIHVEFEYRGFVANTLADLDASMLELRPSEIESVAVNSVFELHKLLGRPGAIDKVLGVVNQIKPEIFTVVEQESNHNSPIFLDRFTESLHYYSTLFDSLEGVPSGQDKVMSEVYLGKQICNVVACDGPDRVERHETLSQWRNRFGSAGFAAAHIGSNAFKQASMLLALFNGGEGYRVEESDGCLMLGWHTRPLIATSAWKLSTN
B2: GAL4 activation domain fusion of the DELLA domain of RGA2 (codons 1-121) (domain or fragment, UniProt Q9LQT8 1-121)
chain: MKRDHHHHHHQDKKTMMMNEEDDGNGMDELLAVLGYKVRSSEMADVAQKLEQLEVMMSNVQEDDLSQLATETVHYNPAELYTWLDSMLTDLNPPSSNAEYDLKAIPGDAILNQFAIDSASS
B3: split YFP fusion of ABI5 (protein, UniProt Q9SJN0 1-442)
chain: T2 sequence
B4: GAL4 activation domain fusion of ABI5 (protein, UniProt Q9SJN0 1-442)
chain: T2 sequence

How the values were obtained:
[1] = target: T1, GAL4 binding domain fusion of AFP2 (ABI5-binding protein 2) (Arabidopsis); test: two-hybrid; GAL4 AD fusions (pACT2lox) and GAL4 BD fusions; matings between haploid yeast lines, replica-plated on selective media; growth on -HALW shows activation of the HIS3 and ADE2 reporters
[2] = target: T2, GAL4 binding domain fusion of ABI5 (Arabidopsis); test: as above
[3] = target: T3, GAL4 binding domain fusion of AFP1 (ABI5-binding protein 1) (Arabidopsis); test: as above
[4] = target: T4, split YFP fusion of AFP2 (Arabidopsis); test: split reporter; split YFP (BiFC) in N. benthamiana; DELLAs in pSITE-cEYFP-C1; done as described in ref. 32
[5] = target: T5, split YFP fusion of AFP1 (Arabidopsis); test: as above

| Binder | binding [1] | binding [2] | binding [3] | binding [4] | binding [5] |
| --- | --- | --- | --- | --- | --- |
| B1 | binds weakly | binds | binds weakly | – | – |
| B2 | – | binds | – | – | – |
| B3 | – | – | – | binds | binds |
| B4 | binds | – | binds | – | – |
